Test results published in PubChem BioAssay AID220 (DTP/NCI, 2004).
The list does not hold the whole screen: it is rich in T/C values a quarter to a half above the control, in often repeated tests (any T/C) and in doses without a T/C. Other doses and runs of a compound stand elsewhere. T/C: endpoint of the treated group in % of that of the vehicle group. Schedule codes are those of the source, read here as Q, the interval in days (D) or hours (H), X, the number of doses. Some T/C values carry the count of animals alive at the toxicity check (mostly the fifth day); without a count, all were alive then. Some doses have a count of surviving animals in place of a T/C: the source holds a T/C of zero for them, seemingly a mark for toxic or unscored doses. Counts of survivors are from the toxicity check (mostly the fifth day) where no day follows; animals may have died later. Some doses were run more than once; the results are listed from low to high.

System: CD8F1 mice, subcutaneous mammary adenocarcinoma, T/C%
Assay: NCI In Vivo Anticancer Drug Screen. Data for tumor model Mammary Adenocarcinoma CD8F1 (subcutaneous) in CD8F1
Conditions: higher T/C = larger tumour
Experimental: The antitumor activity of compounds was measured in mice bearing transplantable tumors. Survival or tumor size were measured and the results are expressed as the measurement made in the treated group (T) divided by the measurement made in the vehicle treated control group (C). The tumor model used in this assay is Mammary Adenocarcinoma CD8F1 (subcutaneous) in CD8F1

[1] = T/C endpoint: median tumor weight change, dose: 250.0 mg/kg/injection, schedule: Q01DX001 (ip), vehicle: saline with Tween-80
[2] = T/C endpoint: median tumor weight change, dose: 500.0 mg/kg/injection, schedule: Q01DX001 (ip), vehicle: saline with Tween-80
[3] = T/C endpoint: median tumor weight change, dose: 1000.0 mg/kg/injection, schedule: Q01DX001 (ip), vehicle: saline with Tween-80
[4] = T/C endpoint: median tumor weight change, dose: 2000.0 mg/kg/injection, schedule: Q01DX001 (ip), vehicle: saline with Tween-80

How did the survivor count (T/C endpoint: median tumor weight change, dose: 400.0 mg/kg/injection, schedule: Q01DX001 (ip), vehicle: saline sonified) turn out when CNC=O was run?
The survivor count was 4 of 10 on day 34.

And the T/C (T/C endpoint: median tumor weight change, dose: 400.0 mg/kg/injection, schedule: Q01DX001 (ip), vehicle: saline, evaluated on day 34)?
The T/C was 136 % of control.

And the survivor count (T/C endpoint: median tumor weight change, dose: 800.0 mg/kg/injection, schedule: Q01DX001 (ip), vehicle: saline sonified)?
Its survivor count is 3 of 10 on day 34.

And the survivor count (T/C endpoint: median tumor weight change, dose: 1600.0 mg/kg/injection, schedule: Q01DX001 (ip), vehicle: saline sonified)?
Its survivor count is 0 of 10 on day 34.

What about the survivor count (T/C endpoint: median tumor weight change, dose: 3200.0 mg/kg/injection, schedule: Q01DX001 (ip), vehicle: saline sonified) of the same molecule?
The survivor count was 0 of 10 on day 34.

What does the source list for Nc1cc2c3c(cccc3c1)C(=O)N(CCN1CCCC1)C2=O?
T/C (T/C endpoint: median tumor weight change, dose: 31.25 mg/kg/injection, schedule: Q01DX001 (ip), vehicle: saline with Tween-80, evaluated on day 28): 67 % of control; T/C (T/C endpoint: median tumor weight change, dose: 31.25 mg/kg/injection, schedule: Q01DX001 (ip), vehicle: saline with Tween-80, evaluated on day 29): 86 % of control; T/C (T/C endpoint: median tumor weight change, dose: 31.25 mg/kg/injection, schedule: Q01DX001 (ip), vehicle: saline with Tween-80, evaluated on day 30): 56 % of control [9 of 10 alive on day 30]; T/C (T/C endpoint: median tumor weight change, dose: 31.25 mg/kg/injection, schedule: Q01DX001 (ip), vehicle: saline with Tween-80, evaluated on day 35): 106 % of control; T/C (T/C endpoint: median tumor weight change, dose: 62.5 mg/kg/injection, schedule: Q01DX001 (ip), vehicle: saline with Tween-80, evaluated on day 28): 56 % of control; T/C (T/C endpoint: median tumor weight change, dose: 62.5 mg/kg/injection, schedule: Q01DX001 (ip), vehicle: saline with Tween-80, evaluated on day 29): 92 % of control; T/C (T/C endpoint: median tumor weight change, dose: 62.5 mg/kg/injection, schedule: Q01DX001 (ip), vehicle: saline with Tween-80, evaluated on day 30): 12 % of control; T/C (T/C endpoint: median tumor weight change, dose: 62.5 mg/kg/injection, schedule: Q01DX001 (ip), vehicle: saline with Tween-80, evaluated on day 35): 74 % of control; T/C (T/C endpoint: median tumor weight change, dose: 125.0 mg/kg/injection, schedule: Q01DX001 (ip), vehicle: saline with Tween-80, evaluated on day 28): 29 % of control; T/C (T/C endpoint: median tumor weight change, dose: 125.0 mg/kg/injection, schedule: Q01DX001 (ip), vehicle: saline with Tween-80, evaluated on day 29): 41 % of control; T/C (T/C endpoint: median tumor weight change, dose: 125.0 mg/kg/injection, schedule: Q01DX001 (ip), vehicle: saline with Tween-80, evaluated on day 30): 20 % of control [9 of 10 alive on day 30]; T/C (T/C endpoint: median tumor weight change, dose: 125.0 mg/kg/injection, schedule: Q01DX001 (ip), vehicle: saline with Tween-80, evaluated on day 35): 43 % of control [9 of 10 alive on day 35]; T/C (T/C endpoint: median tumor weight change, dose: 250.0 mg/kg/injection, schedule: Q01DX001 (ip), vehicle: saline with Tween-80, evaluated on day 28): 8 % of control [7 of 10 alive on day 28]; T/C (T/C endpoint: median tumor weight change, dose: 250.0 mg/kg/injection, schedule: Q01DX001 (ip), vehicle: saline with Tween-80, evaluated on day 35): 35 % of control [7 of 10 alive on day 35]; survivor count [1]: 2 of 10 on day 30 and 3 of 10 on day 29; survivor count [2]: 0 of 10 on day 28, 0 of 10 on day 29, 0 of 10 on day 30

What does the source list for CN(C)CCOc1ccc2c(c1)C/C(=C/c1ncc([N+](=O)[O-])n1C)C2=O?
survivor count (T/C endpoint: median tumor weight (est.), dose: 200.0 mg/kg/injection, schedule: Q07DX005 (ip), vehicle: saline with Tween-80): 6 of 10 on day 30; survivor count (T/C endpoint: median tumor weight (est.), dose: 400.0 mg/kg/injection, schedule: Q07DX005 (ip), vehicle: saline with Tween-80): 0 of 10 on day 30

With CCOC(=O)CNC(=O)CCCCSc1ncnc2nc[nH]c12 as the molecule, how does the T/C (T/C endpoint: median tumor weight (est.), dose: 640.0 mg/kg/injection, schedule: Q07DX004 (ip), vehicle: saline, evaluated on day 23) read?
Its T/C is 140 % of control.

How did the T/C (T/C endpoint: median tumor weight (est.), dose: 10.0 mg/kg/injection, schedule: Q07DX003 (ip), vehicle: Klucel (hydroxypropylcellulose) (HPC), evaluated on day 21) turn out when O=C1C=CC(=O)N1c1ccc(Cl)cc1 was run?
Its T/C is 125 % of control.

And the survivor count (T/C endpoint: median tumor weight (est.), dose: 40.0 mg/kg/injection, schedule: Q07DX003 (ip), vehicle: Klucel (hydroxypropylcellulose) (HPC))?
Its survivor count is 2 of 10.

Which results are given for Cc1ccc(S(=O)(=O)N/N=C/C(=O)O)cc1?
survivor count (T/C endpoint: median tumor weight (est.), dose: 12.5 mg/kg/injection, schedule: Q07DX005 (ip), vehicle: other): 5 of 10 on day 30; survivor count (T/C endpoint: median tumor weight (est.), dose: 200.0 mg/kg/injection, schedule: Q07DX005 (ip), vehicle: other): 6 of 10 on day 30; survivor count (T/C endpoint: median tumor weight (est.), dose: 400.0 mg/kg/injection, schedule: Q07DX005 (ip), vehicle: other): 2 of 10 on day 30

How did the T/C (T/C endpoint: median tumor weight change, dose: 62.5 mg/kg/injection, schedule: Q01DX001 (ip), vehicle: saline, evaluated on day 34) turn out when O=C1CCC(=O)N1CO was run?
Its T/C is 125 % of control.

With CCN(CC)c1ccc2[nH]c3c(C(N)=O)cc(=O)c(=O)c=3oc2c1 as the molecule, how does the T/C (T/C endpoint: median tumor weight change, dose: 125.0 mg/kg/injection, schedule: Q01DX001 (ip), vehicle: saline with Tween-80, evaluated on day 34) read?
The T/C was 131 % of control.

What about the survivor count [3] of the same molecule?
The survivor count was 0 of 10 on day 34.

What does the source list for O=C1N=C(Oc2ccccc2)SC1=O?
survivor count (T/C endpoint: median tumor weight change, dose: 125.0 mg/kg/injection, schedule: Q01DX001 (ip), vehicle: saline with Tween-80): 1 of 10 on day 27; survivor count (T/C endpoint: median tumor weight change, dose: 250.0 mg/kg/injection, schedule: Q01DX001 (ip), vehicle: DMSO): 2 of 10 on day 31; survivor count [1]: 4 of 10 on day 27; survivor count (T/C endpoint: median tumor weight change, dose: 500.0 mg/kg/injection, schedule: Q01DX001 (ip), vehicle: DMSO): 0 of 10 on day 31; survivor count [2]: 0 of 10 on day 27; survivor count (T/C endpoint: median tumor weight change, dose: 1000.0 mg/kg/injection, schedule: Q01DX001 (ip), vehicle: DMSO): 0 of 10 on day 31; survivor count [3]: 0 of 10 on day 27; survivor count (T/C endpoint: median tumor weight change, dose: 2000.0 mg/kg/injection, schedule: Q01DX001 (ip), vehicle: DMSO): 0 of 10 on day 31; survivor count [4]: 0 of 10 on day 27

What does the source list for CCCCOCN(COCCCC)C(C)Cc1ccccc1 (centres undefined)?
T/C (T/C endpoint: median tumor weight change, dose: 500.0 mg/kg/injection, schedule: Q01DX001 (ip), vehicle: saline with Tween-80, evaluated on day 31): 130 % of control; survivor count [4]: 0 of 10 on day 26

Which T/C (T/C endpoint: median tumor weight change, dose: 250.0 mg/kg/injection, schedule: Q01DX001 (ip), vehicle: saline with Tween-80, evaluated on day 37) does the source give for O=c1cc(-c2ccccc2)[nH]c2c1CCCC2 here?
Its T/C is 134 % of control.

What about the T/C (T/C endpoint: median tumor weight change, dose: 500.0 mg/kg/injection, schedule: Q01DX001 (ip), vehicle: saline with Tween-80, evaluated on day 37) of the same molecule?
The T/C was 141 % of control.

And the survivor count [4]?
The survivor count was 5 of 10 on day 37.

Which results are given for S=c1nc[nH]c2nc[nH]c12?
T/C (T/C endpoint: mean tumor weight (est.), dose: 67.5 mg/kg/injection, schedule: Q07DX005 (ip), vehicle: sodium bicarbonate, evaluated on day 63): 136 % of control [8 of 10 alive]; T/C (T/C endpoint: mean tumor weight, dose: 35.0 mg/kg/injection, schedule: Q07DX005 (ip), vehicle: saline, evaluated on day 33): 136 % of control; survivor count (T/C endpoint: mean tumor weight, dose: 135.0 mg/kg/injection, schedule: Q07DX006 (ip), vehicle: sodium bicarbonate): 2 of 10; survivor count (T/C endpoint: mean tumor weight, dose: 135.0 mg/kg/injection, schedule: Q07DX007 (ip), vehicle: saline): 6 of 10; T/C (T/C endpoint: median tumor weight (est.), dose: 12.5 mg/kg/injection, schedule: Q07DX005 (ip), vehicle: Klucel (hydroxypropylcellulose) (HPC), evaluated on day 30): 131 % of control

Which T/C (T/C endpoint: median tumor weight (est.), dose: 100.0 mg/kg/injection, schedule: Q07DX005 (ip), vehicle: Klucel (hydroxypropylcellulose) (HPC), evaluated on day 30) does the source give for Nc1nncs1 here?
The T/C was 126 % of control.

Which results are given for Cn1/c2cc/c1=C(\c1ccc(S(=O)(=O)O)cc1)c1ccc([n-]1)/C(c1ccc(S(=O)(=O)O)cc1)=c1/cc/c([nH]1)=C(\c1ccc(S(=O)(=O)O)cc1)c1ccc([n-]1)/C=2c1ccc(S(=O)(=O)O)cc1.O.O=S(=O)(O)C(F)(F)F.[Cu+2]?
survivor count (T/C endpoint: median tumor weight change, dose: 125.0 mg/kg/injection, schedule: Q01DX001 (ip), vehicle: saline): 2 of 10 on day 34; survivor count (T/C endpoint: median tumor weight change, dose: 250.0 mg/kg/injection, schedule: Q01DX001 (ip), vehicle: saline): 0 of 10 on day 34; survivor count (T/C endpoint: median tumor weight change, dose: 500.0 mg/kg/injection, schedule: Q01DX001 (ip), vehicle: saline): 0 of 10 on day 34; survivor count (T/C endpoint: median tumor weight change, dose: 1000.0 mg/kg/injection, schedule: Q01DX001 (ip), vehicle: saline): 0 of 10 on day 34

COC1=CC(=O)N(C(=O)C2CSC(C(CO)NC(=O)c3csc(/C=N/O)n3)=N2)C1 (centres undefined) was tested. Which T/C (T/C endpoint: median tumor weight (est.), dose: 50.0 mg/kg/injection, schedule: Q07DX005 (ip), vehicle: Klucel (hydroxypropylcellulose) (HPC), evaluated on day 30) did it give?
The T/C was 138 % of control.

With COc1cc([C@@H]2c3cc4c(c(O)c3C[C@H]3COC(=O)[C@@H]32)OCO4)cc(OC)c1OC as the molecule, how does the T/C (T/C endpoint: median tumor weight (est.), dose: 0.5 mg/kg/injection, schedule: Q07DX005 (ip), vehicle: saline, evaluated on day 30) read?
The T/C was 137 % of control.

And the T/C (T/C endpoint: median tumor weight (est.), dose: 1.0 mg/kg/injection, schedule: Q07DX005 (ip), vehicle: saline, evaluated on day 30)?
Its T/C is 126 % of control.
